These are yes or no findings as the source states them, for the method shown. A result given as binding can be weak or reduced; the word gives no strength. Tags and fused reporters may be left off the sequences shown.

Our source for the binding values is patent US20070110760A1.

The test concerns the target Syk-GFP fusion protein. Put plainly: co-localization in transiently transfected 293T cells, confocal microscopy.

On to KRPPYVLL [dsRed.KRPPYVLL fusion protein], for which the binding result was “binds”.
